Measurements as given in publication PMC12647759 (Scientific Reports, 2025).
pIC50: −log10 of the molar value. The structures given here were assigned with low confidence; some may be wrong.

The chains behind the UniProt entries cited, without tags or fusion partners. Where a name states a change or a piece, a line headed by the entry shows the natural chain unless it says otherwise.
UniProt P19174, whole entry: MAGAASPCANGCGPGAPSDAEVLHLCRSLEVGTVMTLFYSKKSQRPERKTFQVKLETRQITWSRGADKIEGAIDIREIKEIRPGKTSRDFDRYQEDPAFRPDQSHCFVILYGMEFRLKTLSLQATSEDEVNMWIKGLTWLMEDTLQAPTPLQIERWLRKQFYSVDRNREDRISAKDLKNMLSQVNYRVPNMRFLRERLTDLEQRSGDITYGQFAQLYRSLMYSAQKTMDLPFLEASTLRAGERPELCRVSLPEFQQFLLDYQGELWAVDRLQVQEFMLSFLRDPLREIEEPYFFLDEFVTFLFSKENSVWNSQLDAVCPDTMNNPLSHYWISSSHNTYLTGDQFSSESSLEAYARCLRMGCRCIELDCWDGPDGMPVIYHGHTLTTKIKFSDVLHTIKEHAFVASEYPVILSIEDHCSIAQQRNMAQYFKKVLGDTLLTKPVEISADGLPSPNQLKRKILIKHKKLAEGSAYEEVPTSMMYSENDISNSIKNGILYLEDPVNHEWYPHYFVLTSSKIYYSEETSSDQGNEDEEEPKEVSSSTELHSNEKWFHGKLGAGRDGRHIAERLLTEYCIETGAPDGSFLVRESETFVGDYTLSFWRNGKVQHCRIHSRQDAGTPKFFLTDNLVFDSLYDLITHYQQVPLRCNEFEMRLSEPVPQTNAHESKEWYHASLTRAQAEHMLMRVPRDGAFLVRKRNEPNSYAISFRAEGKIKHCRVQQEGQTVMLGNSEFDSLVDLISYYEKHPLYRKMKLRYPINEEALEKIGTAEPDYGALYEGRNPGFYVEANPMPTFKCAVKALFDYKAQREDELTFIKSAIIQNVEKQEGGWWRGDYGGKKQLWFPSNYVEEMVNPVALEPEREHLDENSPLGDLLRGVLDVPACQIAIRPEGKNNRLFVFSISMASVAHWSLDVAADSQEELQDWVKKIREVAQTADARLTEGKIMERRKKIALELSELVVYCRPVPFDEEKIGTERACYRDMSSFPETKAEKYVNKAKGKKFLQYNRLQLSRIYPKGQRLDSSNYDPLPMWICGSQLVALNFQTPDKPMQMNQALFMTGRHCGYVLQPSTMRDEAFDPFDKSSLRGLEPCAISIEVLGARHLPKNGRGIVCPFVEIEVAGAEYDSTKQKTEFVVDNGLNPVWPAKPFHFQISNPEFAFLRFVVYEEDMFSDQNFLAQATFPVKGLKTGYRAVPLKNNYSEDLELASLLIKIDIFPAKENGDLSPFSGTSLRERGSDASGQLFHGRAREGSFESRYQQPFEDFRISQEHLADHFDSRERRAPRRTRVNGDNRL
UniProt Q15147, whole entry: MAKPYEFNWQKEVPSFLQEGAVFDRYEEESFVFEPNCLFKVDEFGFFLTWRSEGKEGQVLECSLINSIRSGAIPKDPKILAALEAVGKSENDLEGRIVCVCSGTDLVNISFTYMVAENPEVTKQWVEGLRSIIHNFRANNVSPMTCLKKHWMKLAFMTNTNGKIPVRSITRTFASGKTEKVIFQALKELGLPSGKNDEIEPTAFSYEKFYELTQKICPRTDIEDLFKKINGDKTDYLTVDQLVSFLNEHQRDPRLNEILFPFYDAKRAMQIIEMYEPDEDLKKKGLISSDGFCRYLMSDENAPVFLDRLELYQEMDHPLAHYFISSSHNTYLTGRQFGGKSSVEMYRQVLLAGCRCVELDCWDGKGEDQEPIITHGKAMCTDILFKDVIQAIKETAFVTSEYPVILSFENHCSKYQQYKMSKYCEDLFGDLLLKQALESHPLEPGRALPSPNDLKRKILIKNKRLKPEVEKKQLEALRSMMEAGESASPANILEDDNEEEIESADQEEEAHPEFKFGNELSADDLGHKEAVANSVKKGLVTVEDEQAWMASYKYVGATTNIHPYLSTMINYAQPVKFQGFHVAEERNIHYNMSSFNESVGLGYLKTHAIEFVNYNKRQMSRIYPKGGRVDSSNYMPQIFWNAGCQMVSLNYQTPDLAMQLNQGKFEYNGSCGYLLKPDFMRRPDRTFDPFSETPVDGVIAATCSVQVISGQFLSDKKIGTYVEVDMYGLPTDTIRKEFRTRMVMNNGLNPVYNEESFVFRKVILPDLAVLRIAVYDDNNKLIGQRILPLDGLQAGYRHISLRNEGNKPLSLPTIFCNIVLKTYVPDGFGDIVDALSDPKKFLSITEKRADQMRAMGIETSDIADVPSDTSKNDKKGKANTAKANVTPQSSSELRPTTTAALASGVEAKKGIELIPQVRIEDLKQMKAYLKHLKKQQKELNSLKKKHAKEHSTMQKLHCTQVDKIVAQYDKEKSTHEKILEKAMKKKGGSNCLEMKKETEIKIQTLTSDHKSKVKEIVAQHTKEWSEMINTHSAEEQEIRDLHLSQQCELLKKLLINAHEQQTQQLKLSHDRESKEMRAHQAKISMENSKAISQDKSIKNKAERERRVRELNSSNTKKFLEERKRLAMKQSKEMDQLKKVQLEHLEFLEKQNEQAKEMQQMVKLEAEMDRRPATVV
UniProt P51178, whole entry: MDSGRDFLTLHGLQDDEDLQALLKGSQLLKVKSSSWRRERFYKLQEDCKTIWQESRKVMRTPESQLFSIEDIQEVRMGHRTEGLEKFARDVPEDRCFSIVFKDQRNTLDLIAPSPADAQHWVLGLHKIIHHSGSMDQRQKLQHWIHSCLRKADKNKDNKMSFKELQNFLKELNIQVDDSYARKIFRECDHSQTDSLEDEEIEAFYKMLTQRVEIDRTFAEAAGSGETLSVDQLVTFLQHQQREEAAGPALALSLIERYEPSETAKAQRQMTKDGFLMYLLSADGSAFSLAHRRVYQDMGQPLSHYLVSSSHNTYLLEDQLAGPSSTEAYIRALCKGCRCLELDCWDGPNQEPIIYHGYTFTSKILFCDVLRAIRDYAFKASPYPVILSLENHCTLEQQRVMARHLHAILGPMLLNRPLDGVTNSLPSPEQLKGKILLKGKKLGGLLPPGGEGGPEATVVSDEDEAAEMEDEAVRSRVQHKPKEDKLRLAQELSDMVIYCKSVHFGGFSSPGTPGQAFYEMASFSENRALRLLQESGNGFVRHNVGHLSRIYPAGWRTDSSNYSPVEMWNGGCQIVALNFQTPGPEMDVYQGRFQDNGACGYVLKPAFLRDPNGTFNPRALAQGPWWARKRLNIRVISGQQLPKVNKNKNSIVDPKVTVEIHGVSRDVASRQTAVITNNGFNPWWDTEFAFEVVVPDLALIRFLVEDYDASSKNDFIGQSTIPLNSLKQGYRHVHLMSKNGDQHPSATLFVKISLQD
UniProt Q9P212, whole entry: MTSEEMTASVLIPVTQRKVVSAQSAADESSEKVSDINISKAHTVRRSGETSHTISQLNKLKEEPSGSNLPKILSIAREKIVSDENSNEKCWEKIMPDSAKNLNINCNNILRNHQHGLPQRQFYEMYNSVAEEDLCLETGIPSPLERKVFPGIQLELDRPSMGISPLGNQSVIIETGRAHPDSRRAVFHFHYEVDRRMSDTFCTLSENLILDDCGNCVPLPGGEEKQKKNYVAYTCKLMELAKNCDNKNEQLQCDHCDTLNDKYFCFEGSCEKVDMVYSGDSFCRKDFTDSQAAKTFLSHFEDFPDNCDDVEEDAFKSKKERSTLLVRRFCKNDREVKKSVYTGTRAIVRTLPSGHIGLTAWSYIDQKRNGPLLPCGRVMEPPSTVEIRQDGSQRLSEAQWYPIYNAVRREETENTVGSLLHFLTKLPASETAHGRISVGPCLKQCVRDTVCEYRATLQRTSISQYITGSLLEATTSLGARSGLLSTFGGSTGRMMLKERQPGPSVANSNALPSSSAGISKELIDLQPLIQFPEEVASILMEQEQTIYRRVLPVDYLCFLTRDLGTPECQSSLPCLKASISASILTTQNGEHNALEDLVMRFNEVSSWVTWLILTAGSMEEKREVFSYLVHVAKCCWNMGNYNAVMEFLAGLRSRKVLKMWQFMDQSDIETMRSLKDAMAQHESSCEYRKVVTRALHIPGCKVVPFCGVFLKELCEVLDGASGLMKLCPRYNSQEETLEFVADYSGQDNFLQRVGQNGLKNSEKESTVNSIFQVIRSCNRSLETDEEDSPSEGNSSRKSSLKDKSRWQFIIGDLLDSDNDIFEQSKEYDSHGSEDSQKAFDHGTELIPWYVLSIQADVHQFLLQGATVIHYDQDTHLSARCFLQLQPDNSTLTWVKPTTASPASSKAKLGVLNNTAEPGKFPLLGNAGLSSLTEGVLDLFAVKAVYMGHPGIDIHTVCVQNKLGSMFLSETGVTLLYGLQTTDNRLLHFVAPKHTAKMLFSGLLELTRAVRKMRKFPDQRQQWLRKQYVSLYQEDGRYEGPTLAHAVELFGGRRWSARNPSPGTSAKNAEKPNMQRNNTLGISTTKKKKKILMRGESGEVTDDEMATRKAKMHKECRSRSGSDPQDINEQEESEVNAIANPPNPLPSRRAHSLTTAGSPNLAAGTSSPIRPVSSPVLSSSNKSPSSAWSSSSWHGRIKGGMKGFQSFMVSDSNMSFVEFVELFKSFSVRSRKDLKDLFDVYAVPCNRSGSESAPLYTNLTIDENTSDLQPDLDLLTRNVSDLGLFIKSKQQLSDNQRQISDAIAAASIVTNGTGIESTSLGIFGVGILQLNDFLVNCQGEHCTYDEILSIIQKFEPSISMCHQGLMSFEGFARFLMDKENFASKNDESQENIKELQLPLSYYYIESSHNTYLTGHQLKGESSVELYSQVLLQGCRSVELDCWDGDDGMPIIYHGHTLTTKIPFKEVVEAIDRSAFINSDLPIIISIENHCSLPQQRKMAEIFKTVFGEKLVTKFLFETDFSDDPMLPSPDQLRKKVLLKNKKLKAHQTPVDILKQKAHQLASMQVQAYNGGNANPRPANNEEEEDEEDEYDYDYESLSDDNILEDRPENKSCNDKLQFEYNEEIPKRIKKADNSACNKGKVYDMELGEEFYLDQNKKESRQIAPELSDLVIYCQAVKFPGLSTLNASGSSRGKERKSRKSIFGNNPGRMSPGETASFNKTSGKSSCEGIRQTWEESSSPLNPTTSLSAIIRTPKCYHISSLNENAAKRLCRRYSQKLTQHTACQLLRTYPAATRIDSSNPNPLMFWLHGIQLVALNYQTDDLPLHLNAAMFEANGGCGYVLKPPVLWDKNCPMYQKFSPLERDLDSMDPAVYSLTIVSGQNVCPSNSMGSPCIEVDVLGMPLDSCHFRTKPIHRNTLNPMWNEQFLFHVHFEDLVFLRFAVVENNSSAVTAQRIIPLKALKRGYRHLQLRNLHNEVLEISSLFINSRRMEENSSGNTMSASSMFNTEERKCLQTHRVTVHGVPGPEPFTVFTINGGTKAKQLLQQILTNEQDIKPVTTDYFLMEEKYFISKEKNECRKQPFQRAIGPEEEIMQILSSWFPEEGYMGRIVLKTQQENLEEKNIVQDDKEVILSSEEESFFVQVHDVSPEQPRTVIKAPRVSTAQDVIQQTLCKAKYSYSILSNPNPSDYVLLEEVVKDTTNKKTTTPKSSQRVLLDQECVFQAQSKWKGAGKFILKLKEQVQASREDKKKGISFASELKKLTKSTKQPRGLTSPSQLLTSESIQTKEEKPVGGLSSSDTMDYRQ

Assays:
human PLCγ1 = human PLCγ1 (Homo sapiens, UniProt P19174); test: In vitro PLC assay using fluorogenic substrate Compound 1, PLCγ1; conditions: read-out: IC50, inhibition of PLCγ1 (hydrolysis of Compound 1); purified PLCγ1, fluorogenic substrate Compound 1
human PLCβ4 = human PLCβ4 (Homo sapiens, UniProt Q15147); test: In vitro PLC assay using fluorogenic substrate Compound 1, PLCβ4; conditions: read-out: IC50, inhibition of PLCβ4 (hydrolysis of Compound 1); purified PLCβ4, fluorogenic substrate Compound 1
human PLCδ1 = human PLCδ1 (Homo sapiens, UniProt P51178); test: In vitro PLC assay using fluorogenic substrate Compound 1, PLCδ1; conditions: read-out: IC50, inhibition of PLCδ1 (hydrolysis of Compound 1); purified PLCδ1, fluorogenic substrate Compound 1
human PLCε = human PLCε (Homo sapiens, UniProt Q9P212); test: In vitro PLC assay using fluorogenic substrate Compound 1 (HTS), PLCε; conditions: read-out: IC50, inhibition of PLCε (hydrolysis of Compound 1), purified full-length PLCε

C[n+]1cc2c3c(ccc2c2ccc4cc5c(cc4c21)OCO5)OCO3 [Sanguinarine, sanguinarine]
pIC50 (human PLCγ1): 5.34 | pIC50 (human PLCβ4): 5.41 | pIC50 (human PLCδ1): 5.47 | pIC50 (human PLCε): 5.54
